Results are given in words; binding and its absence hold for the method and conditions named. Binding seen in cells or lysates may run through a third protein. A yes stands for co-enrichment or nearness to the bait. Other partners may have been found.
Biological target: Zinc-α2-glycoprotein 1 (AZGP1) (human (endogenous in HCT116 and SW480)) (UniProt P25311)
Experiment: affinity purification with mass spectrometry; AZGP1 interactors purified by immunoaffinity purification, gel silver stained, resolved by LC-MS/MS; cells not given

By UniProt entry, the sequences of proteins in these tests, tags left out. Residues count along the entry.
UniProt P25311, residues 21-298: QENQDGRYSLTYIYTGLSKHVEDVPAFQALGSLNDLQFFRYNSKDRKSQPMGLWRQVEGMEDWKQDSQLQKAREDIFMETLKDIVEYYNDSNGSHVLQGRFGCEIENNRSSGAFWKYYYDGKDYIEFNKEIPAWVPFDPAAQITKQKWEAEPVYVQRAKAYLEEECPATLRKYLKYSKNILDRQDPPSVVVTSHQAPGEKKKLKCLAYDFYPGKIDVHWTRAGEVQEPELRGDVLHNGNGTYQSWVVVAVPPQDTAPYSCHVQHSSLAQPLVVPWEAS
UniProt P21333: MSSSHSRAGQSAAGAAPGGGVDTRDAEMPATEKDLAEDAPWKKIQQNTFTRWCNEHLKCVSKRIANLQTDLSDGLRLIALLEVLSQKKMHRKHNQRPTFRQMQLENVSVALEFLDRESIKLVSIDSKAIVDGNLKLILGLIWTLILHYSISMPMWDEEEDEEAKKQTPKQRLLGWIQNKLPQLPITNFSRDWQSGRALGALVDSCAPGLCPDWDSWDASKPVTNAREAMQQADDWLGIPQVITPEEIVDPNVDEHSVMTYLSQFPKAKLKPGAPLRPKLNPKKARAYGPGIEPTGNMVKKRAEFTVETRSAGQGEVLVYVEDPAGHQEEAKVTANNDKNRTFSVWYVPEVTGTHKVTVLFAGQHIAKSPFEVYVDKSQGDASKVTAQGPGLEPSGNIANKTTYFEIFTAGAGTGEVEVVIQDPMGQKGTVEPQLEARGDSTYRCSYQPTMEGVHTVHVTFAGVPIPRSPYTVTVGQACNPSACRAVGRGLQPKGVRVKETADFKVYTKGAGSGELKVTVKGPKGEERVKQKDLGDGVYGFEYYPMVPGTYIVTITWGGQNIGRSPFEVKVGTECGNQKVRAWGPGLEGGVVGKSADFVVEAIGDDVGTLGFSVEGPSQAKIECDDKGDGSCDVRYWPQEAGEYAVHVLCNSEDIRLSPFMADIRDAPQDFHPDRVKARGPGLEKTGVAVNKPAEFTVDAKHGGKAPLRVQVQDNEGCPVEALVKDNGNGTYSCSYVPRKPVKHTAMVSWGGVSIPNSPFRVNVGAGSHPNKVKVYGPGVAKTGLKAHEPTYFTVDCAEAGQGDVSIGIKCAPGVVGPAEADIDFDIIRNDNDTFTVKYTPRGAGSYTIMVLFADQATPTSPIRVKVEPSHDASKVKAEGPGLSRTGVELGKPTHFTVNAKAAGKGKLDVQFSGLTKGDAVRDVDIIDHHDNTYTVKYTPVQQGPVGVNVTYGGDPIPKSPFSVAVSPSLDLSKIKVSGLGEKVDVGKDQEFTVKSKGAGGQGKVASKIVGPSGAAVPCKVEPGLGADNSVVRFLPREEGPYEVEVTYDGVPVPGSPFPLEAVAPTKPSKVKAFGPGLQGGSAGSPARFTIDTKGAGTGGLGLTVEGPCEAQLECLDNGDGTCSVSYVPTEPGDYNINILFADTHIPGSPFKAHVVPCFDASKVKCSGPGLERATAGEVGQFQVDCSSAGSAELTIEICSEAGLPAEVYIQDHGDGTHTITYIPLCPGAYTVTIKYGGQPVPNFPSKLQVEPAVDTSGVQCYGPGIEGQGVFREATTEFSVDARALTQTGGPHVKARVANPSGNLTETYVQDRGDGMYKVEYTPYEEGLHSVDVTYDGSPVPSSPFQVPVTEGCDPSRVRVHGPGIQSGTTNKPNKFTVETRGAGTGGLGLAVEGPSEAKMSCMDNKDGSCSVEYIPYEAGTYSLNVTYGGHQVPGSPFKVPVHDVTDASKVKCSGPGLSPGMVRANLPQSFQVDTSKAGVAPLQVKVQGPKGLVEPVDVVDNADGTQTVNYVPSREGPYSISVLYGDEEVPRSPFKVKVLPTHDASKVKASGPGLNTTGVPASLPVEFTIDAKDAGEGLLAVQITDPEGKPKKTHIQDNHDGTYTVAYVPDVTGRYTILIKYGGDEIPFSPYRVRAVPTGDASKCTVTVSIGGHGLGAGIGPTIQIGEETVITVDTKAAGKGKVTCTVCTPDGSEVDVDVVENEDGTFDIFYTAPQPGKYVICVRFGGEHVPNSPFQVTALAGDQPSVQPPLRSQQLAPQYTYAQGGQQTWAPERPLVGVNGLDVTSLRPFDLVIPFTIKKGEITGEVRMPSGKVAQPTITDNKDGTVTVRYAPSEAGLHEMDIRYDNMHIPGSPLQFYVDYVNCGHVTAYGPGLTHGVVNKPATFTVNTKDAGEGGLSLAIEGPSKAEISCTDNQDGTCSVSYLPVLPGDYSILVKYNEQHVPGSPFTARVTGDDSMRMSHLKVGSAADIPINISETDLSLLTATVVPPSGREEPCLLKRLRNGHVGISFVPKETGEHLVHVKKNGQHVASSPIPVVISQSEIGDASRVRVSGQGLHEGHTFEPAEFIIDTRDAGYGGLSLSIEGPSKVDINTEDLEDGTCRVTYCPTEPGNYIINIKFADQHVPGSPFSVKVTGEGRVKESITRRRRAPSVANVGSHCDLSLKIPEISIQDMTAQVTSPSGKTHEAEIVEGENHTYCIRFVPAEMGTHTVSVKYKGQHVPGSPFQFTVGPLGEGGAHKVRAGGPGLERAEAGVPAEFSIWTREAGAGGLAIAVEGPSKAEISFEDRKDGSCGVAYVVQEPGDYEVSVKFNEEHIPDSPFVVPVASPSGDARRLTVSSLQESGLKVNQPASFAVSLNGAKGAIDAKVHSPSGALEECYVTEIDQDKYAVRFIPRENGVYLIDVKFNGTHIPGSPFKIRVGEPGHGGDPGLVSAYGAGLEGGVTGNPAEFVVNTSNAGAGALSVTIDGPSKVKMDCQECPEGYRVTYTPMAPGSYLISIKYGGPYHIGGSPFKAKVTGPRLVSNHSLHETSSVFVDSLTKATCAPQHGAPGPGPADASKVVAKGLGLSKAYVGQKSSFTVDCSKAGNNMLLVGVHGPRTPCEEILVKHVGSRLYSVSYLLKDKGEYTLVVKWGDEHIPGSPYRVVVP

binding: binds
Substance: filamin A (FLNA) (from UniProt P21333 1-2647)

— paper PMC6775688
